From the supplement of paper PMC6289059 come the findings set out here.

The other results are listed elsewhere or left out. Single values are uncertain, as repeats are few or missing.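 Hepatocyte-like cells derived from human stem cells with CRISPR-disrupted DGUOK model liver mtDNA depletion syndrome. Each well's ATP signal was scored against other wells on the same plate, and drugs scoring 3 or above were primary hits.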 Non-standard residues stand in square brackets, D forms with d. Residues, ends and D or L forms follow the SMILES beside them. pGlu = O=C1CC[C@@H](C(=O)O)N1; Thz = O=C(O)[C@@H]1CSCN1

For the assay, the system named is DGUOK Δ14/Δ5 iPSC-derived hepatocyte-like cells (SV20). The assay is described as follows: ATP level (CellTiter-Glo luminescence) Z score relative to plate distribution, under 2-DG glycolysis block; higher = more cellular ATP (rescue of mitochondrial ATP production). The following applies: 5 µM; treatment time: day 15 to day 20 of differentiation (5 days); 2-deoxy-D-glucose: 20 mM for 24 h before assay. A general note: In ATP-based viability assays light output follows the ATP content of the culture.
For `Clc1ccc2c(c1)CCc1cccnc1C2=C1CCNCC1`, the ATP level was inactive: -2.77.
In the case of `O=C1NCC2(CCN(CCc3ccccc3)CC2)O1`, the ATP level was inactive: -6.04.
For the compound `COc1cc(C)c(C(=O)Oc2cc(C)c(C(=O)O)c(O)c2C)c(OC)c1C`, the ATP level was active: 3.28.
`O=c1[nH]cnc2nc[nH]c12`: the ATP level was inactive: 2.93.
Take `CCOc1nc2cccc(C(=O)O)c2n1Cc1ccc(-c2ccccc2-c2nnn[nH]2)cc1`: the ATP level is inactive: 1.62.
As to `C[C@@](Cc1ccc(O)c(O)c1)(NN)C(=O)O`, the ATP level was inactive: 2.86.
For `C[N+](C)(CCOc1ccccc1)Cc1ccccc1.O=C(O)c1cc2ccccc2cc1[O-]`, the ATP level is inactive: 1.81.
For `Nc1ncnc2c1ncn2[C@@H]1O[C@H](CO)[C@@H](O)[C@@H]1O`, the ATP level is inactive: -0.0922.
`CCCCC(CC)COC(=O)CC(C(=O)OCC(CC)CCCC)S(=O)(=O)O` (stereo not drawn): the ATP level was inactive: -0.676.
Take `C[C@H]1C[C@H]2[C@@H]3CCC4=CC(=O)C=C[C@]4(C)[C@@]3(F)[C@@H](O)C[C@]2(C)[C@@]1(O)C(=O)COP(=O)(O)O`: the ATP level is inactive: 1.76.
For the compound `CCC1(c2ccccc2)C(=O)NCNC1=O`, the ATP level was inactive: -0.106.
Turning to `COc1cc(-c2ccc(/N=N/c3ccc4c(S(=O)(=O)O)cc(S(=O)(=O)O)c(N)c4c3O)c(OC)c2)ccc1/N=N/c1ccc2c(S(=O)(=O)O)cc(S(=O)(=O)O)c(N)c2c1O`, the ATP level was inactive: -0.611.
In the case of `CN(C)CCC(c1ccc(Br)cc1)c1ccccn1` (stereo not drawn), the ATP level was inactive: -3.29.
Regarding `Oc1c(Cl)cc(Cl)c2cccnc12`, the ATP level is inactive: -5.19.
In the case of `c1ccc(-c2ccc(C(c3ccccc3)n3ccnc3)cc2)cc1` (stereo not drawn), the ATP level was inactive: -1.56.
For `O=C1CC[C@@H](C(=O)N2CSC[C@H]2C(=O)O)N1` ([pGlu]-[Thz]-OH), the ATP level was inactive: 0.0345.
Consider `CC(C)NCC(O)COc1ccc(CC(N)=O)cc1` (stereo not drawn), for which the ATP level was inactive: 0.283.
For `C[C@H]1O[C@H](O[C@H]2[C@H](O)[C@@H](O)[C@@H](O[C@@H]([C@H](O)[C@@H](O)C=O)[C@H](O)CO)O[C@@H]2CO)[C@H](O)[C@@H](O)[C@@H]1N[C@H]1C=C(CO)[C@@H](O)[C@H](O)[C@H]1O`, the ATP level was inactive: 0.72.
With `NC(Cn1ccc(=O)c(O)c1)C(=O)O` (stereo not drawn), the ATP level was inactive: -1.
For the compound `CN1CCN(CC(=O)N2c3ccccc3C(=O)Nc3cccnc32)CC1`, the ATP level is inactive: 0.603.
With `CC(=O)N(CC(O)CO)c1c(I)c(C(=O)NCCO)c(I)c(C(=O)NCC(O)CO)c1I` (stereo not drawn), the ATP level is inactive: 2.
As for `COc1ccccc1-c1cc(=O)c2c(OC)cccc2o1`, the figure is inactive: -1.64; as for `COC(=O)Nc1nc2cc(Sc3ccccc3)ccc2[nH]1`, inactive: -5.85.
As for `Cn1c(=O)c2c(ncn2CC2OCCO2)n(C)c1=O`, the figure is inactive: 0.298; as for `CCCCCCCC(=O)OCC(COC(=O)CCCCCCC)OC(=O)CCCCCCC`, inactive: -0.787; as for `O=C(O)C1=C(CSc2nnnn2CS(=O)(=O)O)CS[C@@H]2[C@H](NC(=O)[C@H](O)c3ccccc3)C(=O)N12`, inactive: 0.91.
On to `CC(C)CC(NC(=O)[C@H](C)N)C(=O)O` (mixture of isomers), for which the ATP level is inactive: -0.944.
As for `CCN(CC)CCNC(=O)c1ccc(N)cc1`, the figure is inactive: 1.33; as for `NC[C@H](O)c1ccc(O)c(O)c1`, inactive: 1.4; as for `O=C(Oc1cc(O)cc2c1C[C@@H](OC(=O)c1cc(O)c(O)c(O)c1)[C@@H](c1cc(O)c(O)c(O)c1)O2)c1cc(O)c(O)c(O)c1`, inactive: 1.94.
Consider `CC(=O)c1cc2ccccc2oc1=O`, for which the ATP level was inactive: -1.96.
Regarding `CCCCCCOc1ccccc1C(N)=O`, the ATP level was inactive: -0.37.
As to `CC[C@H]1OC(=O)[C@H](C)[C@@H](O[C@H]2C[C@@](C)(OC)[C@@H](O)[C@H](C)O2)[C@H](C)[C@@H](O[C@@H]2O[C@H](C)C[C@H](N(C)C)[C@H]2O)[C@](C)(O)C[C@@H](C)CN(C)[C@H](C)[C@@H](O)[C@]1(C)O`, the ATP level is inactive: 1.51.
Then `CN[C@H]1CC[C@@H](c2ccc(Cl)c(Cl)c2)c2ccccc21`, with inactive: -0.953.
As to `Nc1ccc(S(=O)(=O)Nc2nccs2)cc1`, the ATP level is inactive: 0.501.
Turning to `CC(C)[N+]1(C)[C@@H]2CC[C@H]1C[C@@H](OC(=O)C(CO)c1ccccc1)C2` (stereo partly drawn), the ATP level is inactive: 0.322.
With `Cc1ccc(-c2cc(C(F)(F)F)nn2-c2ccc(S(N)(=O)=O)cc2)cc1`, the ATP level was active: 3.68.
`O=C1c2ccccc2C(=O)c2c(O)c(O)cc(O)c21`: the ATP level is inactive: 0.196.
On to `C[C@]12CC[C@@H]3c4ccc(O)cc4C[C@@H](CCCCCCCCC[S+]([O-])CCCC(F)(F)C(F)(F)F)[C@H]3[C@@H]1CC[C@@H]2O` (stereo partly drawn), for which the ATP level is inactive: -0.717.
As to `O=C(O)[C@@H]1[C@H]2C[C@H]3c4[nH]c5ccccc5c4CCN3C[C@@H]2CC[C@@H]1O`, the ATP level is inactive: 0.126.
Consider `O=C(NCCCN1CCOCC1)c1ccc(Cl)cc1`, for which the ATP level was inactive: 0.0487.
As for `COc1cc(CNC(=O)CCCC/C=C/C(C)C)ccc1O`, the figure is inactive: -0.426; as for `COC(=O)c1c(OC)cc2c(c1C)Oc1c(Cl)c(O)c(Cl)c(C)c1C(=O)O2`, inactive: -8.
Regarding `CO/N=C(\C(=O)N[C@@H]1C(=O)N2C(C(=O)O)=C(COC(C)=O)CS[C@H]12)c1csc(N)n1`, the ATP level was inactive: -11.3.
For `C=C[C@](C)(O)CC[C@@H]1[C@@]2(C)CCCC(C)(C)[C@@H]2CC[C@@]1(C)O`, the ATP level was inactive: -5.8.
As for `O=C(/C=C/c1ccc(O)c(O)c1)O[C@H](Cc1ccc(O)c(O)c1)C(=O)O`, the ATP level was inactive: -2.11.
Turning to `COC(=O)[C@H](Cc1ccccc1)NC(=O)[C@@H](N)CC(=O)O` (H-Asp-Phe-OMe), the ATP level was inactive: 1.26.
Take `COc1cc(O)c2c(=O)cc(C)oc2c1CC=C(C)C`: the ATP level is inactive: 1.22.
Then `OC[C@@H](O)[C@@H](O[C@@H]1O[C@H](CO)[C@@H](O)[C@H](O)[C@H]1O)[C@H](O)[C@@H](O)CO`, with inactive: 1.16; and `C[N+](C)(C)CC(O)CC(=O)[O-]` (stereo not drawn), with inactive: 0.953; and `CCCCOc1cc(C(=O)OCCN(CC)CC)ccc1N`, with inactive: -1.71.
For `CC(=O)Nc1nnc(S(N)(=O)=O)s1`, the ATP level is inactive: -0.289.
`CC(=O)O[C@]1(C)CC[C@@]23C[C@H]1C(C)(C)[C@@H]2CC[C@H]3C`: the ATP level was inactive: -4.91.
As for `CC(=O)Nc1c(I)cc(I)c(C(=O)O)c1I`, the figure is inactive: -0.177; as for `Cc1cc2cc3c(C)cc(=O)oc3c(C)c2o1`, inactive: -2.19.
With `CC(C)Oc1ccc2c(=O)c(-c3ccccc3)coc2c1`, the ATP level is inactive: 1.31.
Then `COC1=CC(=O)C(O)=C/C1=C\C=C\c1ccccc1`, with inactive: 0.0483; and `O=C(CCCl)NCCc1ccccc1`, with inactive: 1.24; and `CCCOc1ccccc1-c1nc2[nH]nnc2c(=O)[nH]1`, with inactive: 1.15.
Regarding `CCN(Cc1cccc(S(=O)(=O)O)c1)c1ccc(C(=C2C=CC(=[N+](CC)Cc3cccc(S(=O)(=O)O)c3)C=C2)c2ccc(O)cc2S(=O)(=O)[O-])cc1`, the ATP level is inactive: -0.952.
As for `CCCCCCNC(=O)n1cc(F)c(=O)[nH]c1=O`, the figure is inactive: -0.837; as for `COc1ccc(Cl)cc1C(=O)NCCc1ccc(S(=O)(=O)NC(=O)NC2CCCCC2)cc1`, inactive: 1.93.
Then `CC#C[C@]1(O)CC[C@H]2[C@@H]3CCC4=CC(=O)CCC4=C3[C@@H](c3ccc(N(C)C)cc3)C[C@@]21C`, with inactive: -1.34; and `COc1cc(O)c2c(=O)c(OC)c(-c3ccc(OC)c(OC)c3)oc2c1`, with inactive: 0.063.
Then `O=c1cc(-c2ccccc2)oc2ccccc12`, with inactive: -0.619; and `O=C(O)C1=CC(=C(c2ccc(O)c(C(=O)O)c2)c2ccc(O)c(C(=O)O)c2)C=CC1=O`, with inactive: 1.64; and `C[C@@H]1C/C=C/C=C/C=C/C=C/[C@H](O[C@@H]2O[C@H](C)[C@@H](O)[C@H](N)[C@@H]2O)C[C@@H]2O[C@](O)(C[C@@H](O)C[C@H]3O[C@@H]3/C=C/C(=O)O1)C[C@H](O)[C@H]2C(=O)O`, with inactive: 2.25.
Turning to `NC(Cc1ccc(F)cc1)C(=O)O` (stereo not drawn), the ATP level was inactive: -2.24.
Turning to `CC(C)[C@H](N)C(=O)OCCOCn1cnc2c(=O)nc(N)[nH]c21`, the ATP level was inactive: -0.461.
Then `NCCC(=O)N[C@@H](Cc1c[nH]cn1)C(=O)O`, with inactive: -0.782.
Take `CN(C(=O)CN(CCO)CC(=O)N(C)C(C)(C)Cc1ccccc1)C(C)(C)Cc1ccccc1`: the ATP level was inactive: -4.63.
In the case of `CC1(C)C2CCC1(CS(=O)(=O)O)C(=O)C2=Cc1ccc(C=C2C(=O)C3(CS(=O)(=O)O)CCC2C3(C)C)cc1`, the ATP level was inactive: 2.77.
For the compound `COC(=O)N/N=C/c1c[n+]([O-])c2ccccc2[n+]1[O-]`, the ATP level was inactive: -4.15.
Turning to `CC(C)=CCc1c2c(c3occ(-c4ccc(O)c(O)c4)c(=O)c3c1O)C=CC(C)(C)O2`, the ATP level was inactive: 0.879.
Regarding `CCCCCCCC/C=C\CCCCCCCC(=O)O.NCCO`, the ATP level was inactive: 2.6.
For the compound `COc1cc(NS(=O)(=O)c2ccc(N)cc2)ncn1`, the ATP level is inactive: 2.89.
Take `CC1(C)O[C@@H]2C[C@H]3[C@@H]4C[C@H](F)C5=CC(=O)C=C[C@]5(C)[C@@]4(F)[C@@H](O)C[C@]3(C)[C@]2(C(=O)CO)O1`: the ATP level is inactive: 2.57.
As to `Cc1cc(C)nc(NS(=O)(=O)c2ccc(N)cc2)n1`, the ATP level is inactive: -11.1.
In the case of `CCOC(=O)Nc1nc2ccccc2[nH]1`, the ATP level is inactive: -0.804.
Then `COc1ccc(-c2oc3cc(OC)c(OC)c(OC)c3c(=O)c2OC)cc1OC`, with inactive: 1.29.
As to `NC[C@H]1O[C@H](O[C@H]2[C@H](O)[C@@H](O[C@H]3O[C@H](CO)[C@@H](O)[C@H](N)[C@H]3O)[C@H](N)C[C@@H]2N)[C@H](N)C[C@@H]1O`, the ATP level was inactive: 0.197.
As to `Cc1c(N)c(=O)n(-c2ccccc2)n1C`, the ATP level was inactive: -0.635.
Consider `CC1C(=O)OC2C1CCC1(C)CCC(=O)C(C)C21` (stereo not drawn), for which the ATP level is inactive: -0.85.
